Results deposited as PubChem BioAssay AID1259254 (NCATS, 2017).
This is an unselected part of about 59,000 reagents tested. Of all reagents, about 1,550 (2.6%) are marked active. 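G2 share is only a proxy for re-replication; each gene was hit by three separate siRNAs, and active genes were retested.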 Reagents against one gene are numbered here. Not all columns of the deposit are shown. Not stated in the record: the amount of reagent.

- Screen: 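Finding genes that stop cells copying their DNA twice in one cycle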 (primary screen)
- System: human HCT116 colorectal cancer cells
- Reagent: single siRNA against human genes
- Timing: 3 days
- Measured: 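Imaged Hoechst DNA stain sorts each cell into a cycle phase by DNA amount; per plate, G2 fraction set to 0% for non-targeting and 100% for GMNN siRNA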
- Direction: G2 robust z-score: higher = more G2 cells, more excess DNA replication
- Call rule: 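Active siRNAs have a G2 robust z of 5 or more median absolute deviations over the median, which in these data means about 38% or higher of GMNN control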

GBA2 #1 scored G2 robust z-score -0.321; inactive.
For GBA2 #2, the values are G2 robust z-score 2.32; inactive.
GBA2 #3 scored G2 robust z-score 0.707; inactive.
With knock-down of CSN1S1 #1 the results were G2 robust z-score 0.525; inactive.
For CSN1S1 #2 the deposit lists G2 robust z-score -0.263; inactive.
After knock-down of CSN1S1 #3, the record shows G2 robust z-score 1.43; inactive.
After knock-down of GJB7 #1, the screen gave G2 robust z-score -0.548; inactive.
GJB7 #2 gave G2 robust z-score -0.97; inactive.
After knock-down of GJB7 #3, the screen gave G2 robust z-score -0.0985; inactive.
GJB7 #4 gave G2 robust z-score -0.103; inactive.
Knock-down of GJB7 #5 gave: G2 robust z-score -0.564; inactive.
GJB7 #6 scored G2 robust z-score -0.721; inactive.

2 of these entries in another layout:
GJB7 #1
- G2 robust z-score: -0.548
- call: inactive

GJB7 #2
- G2 robust z-score: -0.97
- call: inactive
